# From paper PMC4114980
# These are yes or no findings as the source states them, for the method shown. For some of these results: A result given as binding can be weak or reduced; the word gives no strength. Sequences can lack the tags named with a protein.
# Tests used:
# Assay in all cases: far-Western, overlay or dot blot; GST fusion proteins fractionated by SDS-PAGE and blotted to nitrocellulose; incubated overnight at room temperature with 5 µg/ml bovine tubulin polymerized with 1 mM GTP and 20 µM taxol in PEMF buffer; bound microtubules detected with anti-tubulin antibody; both purified
# [1] = biological target: T1, Chro-NTD (1–346), NH2-terminal domain of Chromator, GST-fusion protein (Drosophila) (UniProt Q86BS3)
# T1 sequence: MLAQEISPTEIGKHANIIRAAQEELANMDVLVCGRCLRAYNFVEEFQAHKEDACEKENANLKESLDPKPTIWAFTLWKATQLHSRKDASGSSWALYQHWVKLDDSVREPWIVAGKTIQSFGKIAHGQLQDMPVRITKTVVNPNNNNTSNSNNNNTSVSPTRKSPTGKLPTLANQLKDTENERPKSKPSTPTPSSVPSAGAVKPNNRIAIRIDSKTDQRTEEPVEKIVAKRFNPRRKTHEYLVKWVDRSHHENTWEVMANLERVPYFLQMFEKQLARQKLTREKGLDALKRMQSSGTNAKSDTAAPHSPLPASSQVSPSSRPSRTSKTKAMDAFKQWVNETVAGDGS
# [2] = biological target: T2, Chro-FL (1–926), full-length Chromator GST-fusion protein (Drosophila) (UniProt Q86BS3)
# T2 sequence: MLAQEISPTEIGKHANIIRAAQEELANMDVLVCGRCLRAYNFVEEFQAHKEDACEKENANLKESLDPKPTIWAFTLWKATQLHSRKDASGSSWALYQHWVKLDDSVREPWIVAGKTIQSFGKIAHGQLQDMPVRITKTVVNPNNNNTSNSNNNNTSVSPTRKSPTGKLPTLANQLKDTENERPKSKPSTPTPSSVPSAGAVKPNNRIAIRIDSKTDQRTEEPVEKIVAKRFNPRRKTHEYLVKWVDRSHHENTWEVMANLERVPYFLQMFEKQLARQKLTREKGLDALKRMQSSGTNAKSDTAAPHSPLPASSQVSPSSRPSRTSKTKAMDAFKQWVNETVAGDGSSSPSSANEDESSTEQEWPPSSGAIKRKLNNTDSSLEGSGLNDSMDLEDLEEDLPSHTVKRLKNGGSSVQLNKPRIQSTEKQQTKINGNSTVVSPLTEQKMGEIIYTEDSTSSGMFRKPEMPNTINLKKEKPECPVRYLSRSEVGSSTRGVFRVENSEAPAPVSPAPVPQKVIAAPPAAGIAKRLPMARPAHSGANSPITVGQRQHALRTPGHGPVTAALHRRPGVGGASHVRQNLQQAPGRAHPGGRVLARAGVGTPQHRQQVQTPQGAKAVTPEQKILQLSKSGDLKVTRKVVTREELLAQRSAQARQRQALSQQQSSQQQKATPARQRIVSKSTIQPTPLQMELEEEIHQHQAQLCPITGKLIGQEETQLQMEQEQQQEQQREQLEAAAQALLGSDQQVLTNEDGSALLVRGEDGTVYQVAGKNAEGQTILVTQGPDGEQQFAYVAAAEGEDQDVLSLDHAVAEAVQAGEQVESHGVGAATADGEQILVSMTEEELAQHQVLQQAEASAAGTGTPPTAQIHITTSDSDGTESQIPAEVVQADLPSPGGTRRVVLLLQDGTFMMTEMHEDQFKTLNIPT
# [3] = biological target: T3, Chro-M (329-600), truncated COOH-terminal domain of Chromator, GST-fusion protein (Drosophila) (UniProt Q86BS3)
# T3 sequence: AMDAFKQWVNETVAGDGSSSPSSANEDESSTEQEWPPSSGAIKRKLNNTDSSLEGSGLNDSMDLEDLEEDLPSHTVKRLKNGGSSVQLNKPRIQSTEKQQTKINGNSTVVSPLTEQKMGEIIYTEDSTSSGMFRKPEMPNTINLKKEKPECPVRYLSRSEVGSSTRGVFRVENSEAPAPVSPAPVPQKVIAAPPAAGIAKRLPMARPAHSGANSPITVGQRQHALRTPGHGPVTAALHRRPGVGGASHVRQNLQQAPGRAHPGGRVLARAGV
# [4] = biological target: T4, Chro-CTD (329–926), COOH-terminal domain of Chromator, GST-fusion protein (Drosophila) (UniProt Q86BS3)
# T4 sequence: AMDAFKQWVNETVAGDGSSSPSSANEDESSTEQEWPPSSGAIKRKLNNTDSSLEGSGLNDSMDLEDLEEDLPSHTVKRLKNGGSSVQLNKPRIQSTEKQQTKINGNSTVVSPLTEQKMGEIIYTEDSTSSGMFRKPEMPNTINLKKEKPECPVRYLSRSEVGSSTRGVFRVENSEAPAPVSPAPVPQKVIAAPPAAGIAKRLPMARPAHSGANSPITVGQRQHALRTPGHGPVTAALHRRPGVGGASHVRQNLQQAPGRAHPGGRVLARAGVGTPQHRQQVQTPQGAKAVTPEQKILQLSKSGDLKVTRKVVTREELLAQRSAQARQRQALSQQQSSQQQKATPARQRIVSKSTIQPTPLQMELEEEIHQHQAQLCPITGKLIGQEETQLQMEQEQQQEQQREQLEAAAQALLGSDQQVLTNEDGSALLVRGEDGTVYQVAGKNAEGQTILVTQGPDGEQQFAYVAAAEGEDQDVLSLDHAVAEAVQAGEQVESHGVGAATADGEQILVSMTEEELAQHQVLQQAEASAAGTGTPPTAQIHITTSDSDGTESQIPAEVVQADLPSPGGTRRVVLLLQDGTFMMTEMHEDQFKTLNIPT
substance,measurement,setting,value
purified bovine brain tubulin (complex),binding,[1],no binding (tested: 5 µg/ml tubulin)
same,binding,[2],binds
same,binding,[3],binds
same,binding,[4],binds
